Some of the results follow.
Compound: C1=CC=C(C=C1)[C@H](COC2=CC3=C(C=C2)NC(=O)N3)NC(=O)C4=CC=CN(C4=O)CC5=CC(=C(C=C5)F)F
Assay: log2 fold change, soluble protein after heating vs DMSO (PISA); higher = thermal stabilisation; K562 lysate, 10 uM; active = over 0.2 and 3.5 SD of the protein, either way, in both replicates (recomputed)
In short: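 Dounce homogenisation of K562 pellets in PBS pH 7.4 with 1 mM MgCl2 produced a crude extract, used at 1 mg/mL protein. Exposure to 10 μM compound lasted 30 min, and aliquots were then heated for 3 min across 48°C-58°C, pooled and brought to 0.5% NP-40 at 4°C. The supernatant after 21,000xg for 90 min was quantified by TMTpro 16plex LC-MS/MS with channel sums equalised. Duplicate values are given as log-two fold change in thermal stability relative to solvent controls.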

Protein sequences, listed by entry. Tags and fused reporters are not part of them. Lines headed by an entry give the natural chain unless they say otherwise; changes in a name come on top.
UniProt O75381, whole entry, looked up: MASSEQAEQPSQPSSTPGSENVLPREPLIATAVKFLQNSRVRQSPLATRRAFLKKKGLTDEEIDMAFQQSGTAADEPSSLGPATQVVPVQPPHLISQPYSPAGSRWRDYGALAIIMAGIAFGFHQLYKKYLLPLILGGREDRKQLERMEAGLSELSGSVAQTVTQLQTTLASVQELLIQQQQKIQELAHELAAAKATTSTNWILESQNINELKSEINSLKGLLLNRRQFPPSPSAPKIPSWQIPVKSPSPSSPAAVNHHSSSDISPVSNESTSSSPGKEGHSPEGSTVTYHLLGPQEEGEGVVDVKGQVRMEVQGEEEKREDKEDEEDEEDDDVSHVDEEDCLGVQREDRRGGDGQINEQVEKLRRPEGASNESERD
UniProt Q86TB9: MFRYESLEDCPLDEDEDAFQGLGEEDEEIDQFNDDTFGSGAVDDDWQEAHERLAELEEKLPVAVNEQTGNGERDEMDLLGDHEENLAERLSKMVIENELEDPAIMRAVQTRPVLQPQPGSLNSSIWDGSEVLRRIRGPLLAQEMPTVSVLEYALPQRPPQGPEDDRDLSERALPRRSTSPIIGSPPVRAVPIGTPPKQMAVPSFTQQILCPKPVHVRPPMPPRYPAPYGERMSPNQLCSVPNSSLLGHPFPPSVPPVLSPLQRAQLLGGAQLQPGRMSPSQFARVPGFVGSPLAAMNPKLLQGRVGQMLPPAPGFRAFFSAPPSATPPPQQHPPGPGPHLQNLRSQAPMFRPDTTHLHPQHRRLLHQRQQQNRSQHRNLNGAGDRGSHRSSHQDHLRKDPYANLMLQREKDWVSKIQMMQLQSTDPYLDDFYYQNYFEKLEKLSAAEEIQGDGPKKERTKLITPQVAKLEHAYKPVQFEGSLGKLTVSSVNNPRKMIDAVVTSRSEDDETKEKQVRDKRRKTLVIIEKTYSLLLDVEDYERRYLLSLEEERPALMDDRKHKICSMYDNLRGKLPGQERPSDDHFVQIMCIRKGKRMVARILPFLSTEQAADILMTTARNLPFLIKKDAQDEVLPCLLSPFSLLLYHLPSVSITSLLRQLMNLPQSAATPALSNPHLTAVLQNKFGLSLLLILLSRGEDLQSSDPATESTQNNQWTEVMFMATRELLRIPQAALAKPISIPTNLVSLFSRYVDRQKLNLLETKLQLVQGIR
UniProt Q9H6A9: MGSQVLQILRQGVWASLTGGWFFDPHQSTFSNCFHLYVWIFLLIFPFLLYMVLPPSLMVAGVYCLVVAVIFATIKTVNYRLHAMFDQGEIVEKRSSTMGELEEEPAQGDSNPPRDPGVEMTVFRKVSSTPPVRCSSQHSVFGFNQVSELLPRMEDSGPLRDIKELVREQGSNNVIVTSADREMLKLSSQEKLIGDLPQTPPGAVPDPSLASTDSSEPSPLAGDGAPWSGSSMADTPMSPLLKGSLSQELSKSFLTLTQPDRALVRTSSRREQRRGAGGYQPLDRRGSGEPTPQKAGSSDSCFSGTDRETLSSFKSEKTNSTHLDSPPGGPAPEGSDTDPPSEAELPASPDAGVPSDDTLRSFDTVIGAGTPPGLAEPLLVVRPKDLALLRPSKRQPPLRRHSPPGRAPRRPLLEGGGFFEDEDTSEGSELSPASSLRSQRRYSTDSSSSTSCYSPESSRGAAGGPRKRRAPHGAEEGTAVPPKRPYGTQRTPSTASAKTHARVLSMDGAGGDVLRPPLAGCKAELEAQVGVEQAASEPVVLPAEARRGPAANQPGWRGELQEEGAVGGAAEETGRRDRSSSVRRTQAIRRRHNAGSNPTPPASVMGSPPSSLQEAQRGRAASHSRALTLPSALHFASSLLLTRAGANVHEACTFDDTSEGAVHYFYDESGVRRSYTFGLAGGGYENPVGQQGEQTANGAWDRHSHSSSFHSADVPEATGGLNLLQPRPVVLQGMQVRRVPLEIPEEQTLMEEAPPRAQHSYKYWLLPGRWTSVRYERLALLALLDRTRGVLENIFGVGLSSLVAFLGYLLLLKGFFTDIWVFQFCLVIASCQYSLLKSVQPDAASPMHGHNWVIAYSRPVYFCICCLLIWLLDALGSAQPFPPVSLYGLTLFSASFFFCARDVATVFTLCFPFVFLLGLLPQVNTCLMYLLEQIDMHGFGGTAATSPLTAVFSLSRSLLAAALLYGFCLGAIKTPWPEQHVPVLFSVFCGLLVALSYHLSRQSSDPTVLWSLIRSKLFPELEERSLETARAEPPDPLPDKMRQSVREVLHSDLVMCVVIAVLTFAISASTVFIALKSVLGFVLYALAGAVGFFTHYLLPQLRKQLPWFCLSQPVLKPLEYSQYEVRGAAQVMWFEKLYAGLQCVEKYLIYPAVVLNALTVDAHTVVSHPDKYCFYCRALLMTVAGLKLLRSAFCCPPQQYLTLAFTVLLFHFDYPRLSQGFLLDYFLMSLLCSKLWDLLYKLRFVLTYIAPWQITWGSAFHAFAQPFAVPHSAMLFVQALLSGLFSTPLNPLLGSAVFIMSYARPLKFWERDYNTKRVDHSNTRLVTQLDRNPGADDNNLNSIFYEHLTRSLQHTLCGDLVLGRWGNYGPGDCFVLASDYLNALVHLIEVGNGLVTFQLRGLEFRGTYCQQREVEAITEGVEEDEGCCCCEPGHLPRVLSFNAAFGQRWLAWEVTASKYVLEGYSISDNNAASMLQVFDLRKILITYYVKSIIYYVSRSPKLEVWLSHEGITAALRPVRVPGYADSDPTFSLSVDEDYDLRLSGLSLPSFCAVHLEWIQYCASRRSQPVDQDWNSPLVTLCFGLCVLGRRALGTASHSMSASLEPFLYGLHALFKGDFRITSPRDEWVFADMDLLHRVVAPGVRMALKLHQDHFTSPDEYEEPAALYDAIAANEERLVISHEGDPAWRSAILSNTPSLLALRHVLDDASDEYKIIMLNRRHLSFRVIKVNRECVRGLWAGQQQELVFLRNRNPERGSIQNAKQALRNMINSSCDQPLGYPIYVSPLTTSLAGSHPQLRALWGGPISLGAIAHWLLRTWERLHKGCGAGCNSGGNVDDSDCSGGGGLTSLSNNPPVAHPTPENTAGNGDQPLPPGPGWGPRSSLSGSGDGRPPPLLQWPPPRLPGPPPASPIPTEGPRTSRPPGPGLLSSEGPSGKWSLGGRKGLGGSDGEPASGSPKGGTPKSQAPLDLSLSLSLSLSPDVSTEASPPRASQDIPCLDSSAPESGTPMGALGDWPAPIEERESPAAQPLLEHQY
UniProt O60683: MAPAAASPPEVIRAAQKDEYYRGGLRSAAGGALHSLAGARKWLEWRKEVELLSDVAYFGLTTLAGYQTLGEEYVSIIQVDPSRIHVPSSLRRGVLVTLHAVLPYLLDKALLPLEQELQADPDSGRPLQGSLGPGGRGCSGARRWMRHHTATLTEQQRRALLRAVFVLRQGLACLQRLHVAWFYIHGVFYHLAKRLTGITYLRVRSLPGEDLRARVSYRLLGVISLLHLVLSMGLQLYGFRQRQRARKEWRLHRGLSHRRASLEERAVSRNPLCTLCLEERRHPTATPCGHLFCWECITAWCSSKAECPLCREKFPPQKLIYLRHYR
UniProt P57721, whole entry, looked up: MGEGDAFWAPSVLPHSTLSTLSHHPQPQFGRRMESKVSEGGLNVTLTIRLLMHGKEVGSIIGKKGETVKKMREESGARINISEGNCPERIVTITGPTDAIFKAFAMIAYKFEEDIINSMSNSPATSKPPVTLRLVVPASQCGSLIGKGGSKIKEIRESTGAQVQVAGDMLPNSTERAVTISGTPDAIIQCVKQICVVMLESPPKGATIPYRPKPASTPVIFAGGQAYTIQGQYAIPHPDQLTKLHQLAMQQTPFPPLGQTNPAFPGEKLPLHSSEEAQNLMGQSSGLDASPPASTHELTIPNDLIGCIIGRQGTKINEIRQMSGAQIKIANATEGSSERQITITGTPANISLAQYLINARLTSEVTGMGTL
UniProt Q15154: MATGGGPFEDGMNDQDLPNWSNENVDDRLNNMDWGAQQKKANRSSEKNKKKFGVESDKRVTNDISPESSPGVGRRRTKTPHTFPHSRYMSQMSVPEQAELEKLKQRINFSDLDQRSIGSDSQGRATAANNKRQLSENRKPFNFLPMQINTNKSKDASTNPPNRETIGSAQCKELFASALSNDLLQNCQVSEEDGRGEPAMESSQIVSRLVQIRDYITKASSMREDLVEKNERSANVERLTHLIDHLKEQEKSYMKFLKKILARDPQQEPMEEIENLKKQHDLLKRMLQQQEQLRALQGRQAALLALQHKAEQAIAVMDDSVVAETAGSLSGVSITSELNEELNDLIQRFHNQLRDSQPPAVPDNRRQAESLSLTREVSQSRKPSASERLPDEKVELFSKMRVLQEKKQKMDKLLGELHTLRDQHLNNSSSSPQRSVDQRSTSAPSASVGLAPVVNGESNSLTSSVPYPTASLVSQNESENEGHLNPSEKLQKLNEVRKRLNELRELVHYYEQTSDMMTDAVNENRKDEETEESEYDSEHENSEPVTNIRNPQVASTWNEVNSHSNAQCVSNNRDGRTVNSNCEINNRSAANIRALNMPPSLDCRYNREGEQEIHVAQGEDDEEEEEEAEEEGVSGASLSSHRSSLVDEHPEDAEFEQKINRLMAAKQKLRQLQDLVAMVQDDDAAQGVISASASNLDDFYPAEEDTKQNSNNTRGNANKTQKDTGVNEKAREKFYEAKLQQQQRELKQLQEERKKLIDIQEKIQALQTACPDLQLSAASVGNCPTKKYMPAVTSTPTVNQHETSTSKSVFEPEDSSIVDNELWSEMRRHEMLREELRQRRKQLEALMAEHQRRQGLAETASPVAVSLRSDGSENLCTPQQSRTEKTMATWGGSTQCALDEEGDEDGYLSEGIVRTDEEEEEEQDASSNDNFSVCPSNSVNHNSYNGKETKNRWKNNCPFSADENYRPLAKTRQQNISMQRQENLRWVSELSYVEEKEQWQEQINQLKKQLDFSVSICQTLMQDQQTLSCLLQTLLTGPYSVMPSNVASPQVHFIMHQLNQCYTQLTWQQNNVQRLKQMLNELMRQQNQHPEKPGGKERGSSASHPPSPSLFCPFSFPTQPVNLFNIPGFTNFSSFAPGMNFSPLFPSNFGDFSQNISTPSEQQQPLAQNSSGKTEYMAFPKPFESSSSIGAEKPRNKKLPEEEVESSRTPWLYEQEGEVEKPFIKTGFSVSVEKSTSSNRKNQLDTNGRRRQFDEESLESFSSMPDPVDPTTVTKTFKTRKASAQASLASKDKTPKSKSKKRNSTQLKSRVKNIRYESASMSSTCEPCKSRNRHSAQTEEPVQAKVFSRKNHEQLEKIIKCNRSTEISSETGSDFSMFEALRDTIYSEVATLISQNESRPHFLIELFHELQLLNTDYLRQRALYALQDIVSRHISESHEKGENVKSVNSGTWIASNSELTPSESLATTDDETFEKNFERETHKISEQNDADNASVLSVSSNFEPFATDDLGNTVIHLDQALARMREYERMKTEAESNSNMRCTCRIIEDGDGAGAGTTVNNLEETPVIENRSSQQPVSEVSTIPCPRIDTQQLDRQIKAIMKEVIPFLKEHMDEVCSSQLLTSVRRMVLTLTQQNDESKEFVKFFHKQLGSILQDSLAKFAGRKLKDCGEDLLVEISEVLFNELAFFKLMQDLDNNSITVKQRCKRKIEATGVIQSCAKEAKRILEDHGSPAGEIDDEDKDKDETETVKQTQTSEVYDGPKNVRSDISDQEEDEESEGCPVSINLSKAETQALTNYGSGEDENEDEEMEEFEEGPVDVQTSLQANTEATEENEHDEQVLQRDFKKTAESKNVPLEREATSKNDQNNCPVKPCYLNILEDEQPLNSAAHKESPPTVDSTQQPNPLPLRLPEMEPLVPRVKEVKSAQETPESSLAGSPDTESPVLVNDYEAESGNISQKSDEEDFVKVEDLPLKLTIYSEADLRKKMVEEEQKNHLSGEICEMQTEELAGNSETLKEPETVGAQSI
UniProt O60825: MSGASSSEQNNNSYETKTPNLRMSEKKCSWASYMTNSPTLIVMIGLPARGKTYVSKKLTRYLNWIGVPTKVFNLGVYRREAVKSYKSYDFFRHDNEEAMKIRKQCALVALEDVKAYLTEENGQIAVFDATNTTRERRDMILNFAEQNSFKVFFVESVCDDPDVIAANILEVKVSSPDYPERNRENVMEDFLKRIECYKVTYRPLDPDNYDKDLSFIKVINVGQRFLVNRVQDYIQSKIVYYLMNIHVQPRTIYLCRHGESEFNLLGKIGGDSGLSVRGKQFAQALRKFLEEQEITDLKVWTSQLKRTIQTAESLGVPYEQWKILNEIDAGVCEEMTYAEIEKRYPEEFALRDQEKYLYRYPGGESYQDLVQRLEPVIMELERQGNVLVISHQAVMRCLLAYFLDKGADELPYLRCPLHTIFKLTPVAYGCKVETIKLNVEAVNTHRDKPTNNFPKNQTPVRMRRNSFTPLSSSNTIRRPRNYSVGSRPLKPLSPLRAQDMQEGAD
UniProt Q8WW12: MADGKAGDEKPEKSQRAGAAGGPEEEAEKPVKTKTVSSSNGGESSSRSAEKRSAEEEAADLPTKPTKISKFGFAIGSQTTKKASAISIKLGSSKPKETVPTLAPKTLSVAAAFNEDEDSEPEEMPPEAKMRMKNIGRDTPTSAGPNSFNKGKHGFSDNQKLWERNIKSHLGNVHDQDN

| Target | log2 fold change |
| --- | --- |
| PARP9 (UniProt Q8IXQ6) | inactive: 0.186 |
| PDK1 (UniProt Q15118) | inactive: -0.154 |
| PEX14 (UniProt O75381) | inactive: 0.055 |
| PFKL isoform 2 (UniProt P17858) | inactive: -0.026 |
| PDXP (UniProt Q96GD0) | inactive: -0.002 |
| PEPD (UniProt P12955) | inactive: 0.027 |
| PATL1 (UniProt Q86TB9) | inactive: -0.025 |
| PDCD10 (UniProt Q9BUL8) | inactive: -0.005 |
| PARP14 (UniProt Q460N5) | inactive: 0.021 |
| PCYOX1 (UniProt Q9UHG3) | inactive: -0.025 |
| PEX16 isoform 2 (UniProt Q9Y5Y5) | inactive: -0.072 |
| PCNX3 (UniProt Q9H6A9) | inactive: 0.223 |
| PEX10 isoform 2 (UniProt O60683) | inactive: -0.034 |
| PDHB (UniProt P11177) | inactive: 0 |
| PCBP3 (UniProt P57721) | inactive: -0.028 |
| PDHX (UniProt O00330) | inactive: 0.014 |
| PCM1 (UniProt Q15154) | inactive: 0.019 |
| PBXIP1 (UniProt Q96AQ6) | inactive: -0.009 |
| PFKFB2 (UniProt O60825) | inactive: 0.016 |
| PCNP (UniProt Q8WW12) | inactive: 0.023 |
| PEF1 (UniProt Q9UBV8) | inactive: 0.016 |
| PFKFB1 (UniProt P16118) | inactive: -0.001 |
| PDIA4 (UniProt P13667) | inactive: -0.004 |
